From PMC11937513
No constants are given. Whether binding was seen depends on the method and setting. In cells and extracts the contact can be indirect. Some binding calls cover weakened binding; strength is not graded here.

The chains behind the UniProt entries cited, without tags or fusion partners.
UniProt P38936: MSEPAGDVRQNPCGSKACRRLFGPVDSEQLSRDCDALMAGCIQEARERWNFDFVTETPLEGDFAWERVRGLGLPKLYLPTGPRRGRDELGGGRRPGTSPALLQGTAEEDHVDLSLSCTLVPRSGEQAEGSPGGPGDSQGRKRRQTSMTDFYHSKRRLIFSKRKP
UniProt P06748: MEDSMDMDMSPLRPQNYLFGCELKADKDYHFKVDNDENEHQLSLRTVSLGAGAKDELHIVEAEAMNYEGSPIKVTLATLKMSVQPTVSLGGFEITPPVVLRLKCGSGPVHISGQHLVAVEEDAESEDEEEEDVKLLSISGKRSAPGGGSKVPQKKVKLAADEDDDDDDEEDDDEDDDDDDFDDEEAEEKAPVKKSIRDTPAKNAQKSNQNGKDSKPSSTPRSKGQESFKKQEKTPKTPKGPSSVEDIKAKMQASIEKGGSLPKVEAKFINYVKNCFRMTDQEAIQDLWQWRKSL

Key:
[1] = target: p21 CIP1 (human (endogenous in U2OS)) (UniProt P38936); assay: co-IP; anti-p21 CIP1 immunoprecipitation from the N fraction of U2OS cells treated with CDDP (5 μM) for 3 days, MG132 added 3 h before harvesting; Western blot
[2] = target: p21 CIP1 (human (endogenous in U2OS)) (UniProt P38936); assay: condition: only in cells overexpressing HA βTrCP1 (U2OS::HA βTrCP1, CDDP 5 μM, MG132); co-IP; anti-p21 CIP1 immunoprecipitation from the N fraction of U2OS::HA βTrCP1 cells (overexpressing βTrCP1) treated with CDDP (5 μM) for 3 days, MG132 added 3 h before harvesting; Western blot
[3] = target: nucleophosmin 1 (NPM1) (human (endogenous in U2OS)) (UniProt P06748); assay: condition: only in cells overexpressing HA βTrCP1 (U2OS::HA βTrCP1, CDDP 5 μM); co-IP; anti-NPM1 immunoprecipitation from the N fraction of U2OS::HA βTrCP1 cells (overexpressing βTrCP1) treated with CDDP (5 μM) for 3 days; Western blot for p21 CIP1
[4] = target: nucleophosmin 1 (NPM1) (human (endogenous in U2OS)) (UniProt P06748); assay: co-IP; anti-NPM1 immunoprecipitation from the N fraction of U2OS and U2OS::HA βTrCP1 cells, untreated or treated with CDDP (5 μM) for 3 days; Western blot

| Substance | binding [1] | binding [2] | binding [3] | binding [4] |
| --- | --- | --- | --- | --- |
| nucleophosmin 1 (NPM1) (from UniProt P06748 1-294) | binds | no binding | – | – |
| p21 CIP1 (from UniProt P38936 1-164) | – | – | no binding | binds |
